Among the data in PubChem BioAssay AID2685 (National Center for Advancing Translational Sciences (NCATS), 2010) are cell number change and AC50 values, retold here.

This is one part of the list. These are further read-outs of the screen, such as a control signal, another cell line or another target. No call is given for them. Most of these compounds were active or inconclusive in the main read-out, so they are no random draw. The note in brackets gives the kind of curve behind each potency; many fits are weak.

This test is described as follows: qHTS Assay for Lipid Storage Modulators in Drosophila S3 Cells.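 As to cell number change: cells counted by Cell Tracker Red CMTPX staining in the red channel.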 The following applies: BODIPY lipid droplet fluorescence, 18-24 h; for cell number change: measured here: cell count max response, cells fed with added oleic acid. The essentials:
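Laser-scanning cytometry quantifies lipid droplet accumulation (500–530 nm total intensity; droplet/cell object ratio) in oleic acid-fed (400 uM added) Drosophila S3 cells treated with a concentration series. 20 uM Triacsin C defined 100% inhibition.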

[1] abbreviates: measured here: lipid fluorescence (Fed channel) AC50, cells fed with added oleic acid.
Setting [2] is: measured here: cell number channel AC50, cells fed with added oleic acid.

In the case of `c1ccc(CCCCN2C(Nc3ccccc3)=NC[C@@H]2Cc2ccccc2)cc1`, the cell number change came to 15.3%. Moreover, the AC50 under setting [1] is 29.1 µM [falling, single point].
`COc1ccc(NS(=O)(=O)c2cnc[nH]2)cc1`: the cell number change worked out at 3.01%. The AC50 under setting [1] was 32.6 µM [rising, single point].
As for `Cc1cc(C(=O)CN2C(=O)c3ccccc3S2(=O)=O)c(C)n1C(C)C`, the cell number change was 32.1%. Also, the AC50 under setting [2] was 0.461 µM [rising, full curve, poor fit]. Under setting [1], the AC50 is 1.3 µM [rising, full curve].
Take `C=CCn1c(SCC(=O)Nc2cccnc2Cl)nnc1-c1ccc(C(C)(C)C)cc1`: the cell number change was -17.2%. Also, under setting [2], the AC50 is 6.51 µM [falling, single point]. For the same molecule, under setting [1], the AC50 was 6.51 µM [falling, single point].
Take `Cn1c(SCC(=O)NC2CCCC2)nnc1-c1ccco1`: the cell number change was -2.94%. Also, the AC50 under setting [1] is 6.51 µM [falling, single point].
Turning to `COc1ccc(Br)cc1CNC(=O)CCNC(=O)Cn1ccc2ccccc2c1=O`, the AC50 is 0.731 µM [rising, full curve] under setting [2] and 0.411 µM [rising, full curve, poor fit] under setting [1].
On to `COc1cc2c(cc1NC(=O)COC(=O)C1CC(=O)N(Cc3ccco3)C1)oc1ccccc12` (centres undefined), for which the cell number change was 30.9%. The AC50 under setting [2] is 0.92 µM [rising, full curve, poor fit].
For `CCOC(=O)c1c(NC(=S)NNS(=O)(=O)c2ccc(Br)cc2)sc2c1CCCCC2`, the cell number change is -1.62%. Further, the AC50 under setting [2] is 7.31 µM [rising, single point].
For the molecule `Cc1ccc(S(=O)(=O)Nc2ccccn2)cc1[N+](=O)[O-]`, the cell number change was 44.8%. For the same molecule, under setting [1], the AC50 was 2.31 µM [falling, partial curve].
Turning to `CCOC(=O)c1cc2c(ccn2C)n1CC(=O)N1CCN(c2cccc(C(F)(F)F)c2)CC1`, the cell number change is -43.6%. The AC50 under setting [2] is 20.6 µM [falling, partial curve].
Regarding `COc1ccc(Cl)cc1NC(=O)CC(C)=O`, the cell number change stood at 11.9%. Besides, the AC50 under setting [1] was 5.8 µM [falling, single point].
In the case of `CC1CN(C(=O)c2nn(C)cc2[N+](=O)[O-])CC(C)O1` (centres undefined), the cell number change was -19.8%. Besides, the AC50 under setting [1] is 0.00517 µM [falling, full curve, poor fit].
As to `COc1ccccc1/C=C/C=N/n1c(-c2ccc(C)cc2)n[nH]c1=S`, the cell number change is -5.65%. The AC50 under setting [1] was 3.26 µM [rising, single point].
`COC(=O)c1cccc(NC(=O)CCN2C(=O)C3CC=CCC3C2=O)c1` (centres undefined): the cell number change was determined as 12.4%. In addition, under setting [1], the AC50 is 1.03 µM [rising, full curve, poor fit].
As to `CCOC(=O)C(C)c1n[nH]c(=O)c2ccccc12` (centres undefined), the cell number change is 20.6%. Also, the AC50 under setting [1] is 6.51 µM [rising, single point].
On to `Cc1ccc(-n2cc(CNCCCn3cccn3)c(-c3cccc(C)c3)n2)cc1`, for which the cell number change was -40.8%. The AC50 under setting [2] was 9.2 µM [falling, partial curve, poor fit]. The AC50 under setting [1] was 0.651 µM [falling, full curve, poor fit].
Regarding `Cc1cc(NC(=O)CCS(=O)(=O)c2ccc(F)cc2)no1`, the cell number change turned out to be 3.21%.
Regarding `O=C(CCCN1C(=O)C2CC=CCC2C1=O)Nc1ccccc1Cl` (centres undefined), the cell number change is -8.96%.
In the case of `COc1ccc(/C=C/C(=O)c2ccc(O)cc2)cc1COc1ccc(F)cc1`, the cell number change was -46%. Also, the AC50 under setting [2] is 29.1 µM [falling, single point].
Turning to `COc1ccc(NC(=O)CN2CCC(NC(=O)c3ccc(OC)cc3)CC2)cc1`, the cell number change was determined as 3.23%. In addition, the AC50 under setting [1] was 1.16 µM [rising, full curve, poor fit].
Take `Cc1ccc(C2CC(=O)C(C=NCCN3CCN(CC(=O)Nc4cc(C)cc(C)c4)CC3)=C(O)C2)cc1` (centres undefined): the cell number change is 2.84%. Moreover, the AC50 under setting [1] was 0.411 µM [falling, partial curve, poor fit].
As to `COc1ccc(N2C(=O)CCC(C(=O)O)C2c2ccc(OC)c(OC)c2)cc1` (centres undefined), the cell number change is -90.8%. In addition, the AC50 under setting [2] was 29.1 µM [falling, single point].
Regarding `C=CCNC(=O)C(=O)c1cccn1-c1ccsc1C(=O)OC`, the cell number change was -54.8%. Further, under setting [2], the AC50 is 29.1 µM [falling, single point].
`Cc1ccc(S(=O)(=O)NCCC(=O)NCc2ccc(Cl)cc2)cc1C`: the cell number change is -32.9%. Moreover, the AC50 under setting [2] is 36.6 µM [falling, partial curve, poor fit]. The AC50 under setting [1] is 29.1 µM [falling, single point].
In the case of `OCCN(CCO)c1nc(N2CCCCC2)c2nc(N(CCO)CCO)nc(N3CCCCC3)c2n1`, the cell number change is -28%. Also, the AC50 under setting [1] is 11.6 µM [rising, partial curve].
In the case of `CNc1nc(SCC(=O)OC)nc(N2CCOCC2)n1`, the cell number change is -11%.
In the case of `CC(NC(=O)c1ccccc1NC(=O)CN1CCN(c2ccccc2O)CC1)c1ccccc1` (centres undefined), the AC50 under setting [1] was 6.51 µM [falling, single point].
Regarding `CN(C)c1ccc(-c2sc(Nc3ccccc3)n[n+]2-c2ccc(F)cc2)cc1`, the cell number change was -2.4%. In addition, the AC50 under setting [1] was 29.1 µM [falling, single point].
`COC(=O)N/N=C(\C)c1ccc(-n2ccnc2)cc1`: the cell number change was -4.48%. For the same molecule, the AC50 under setting [2] is 2.59 µM [rising, partial curve]. Moreover, under setting [1], the AC50 is 6.51 µM [rising, partial curve].
`O=[N+]([O-])c1ccc(-c2c(-c3ccccc3)ncc3ccc(F)cc23)cc1`: the cell number change is -34.3%. The AC50 under setting [2] is 0.82 µM [falling, partial curve, poor fit]. In addition, the AC50 under setting [1] is 0.116 µM [falling, full curve, poor fit].
In the case of `CCC(C(=O)NCCCN1CCOCC1)n1c2ccccc2c2nc(=O)cc(C)n21` (centres undefined), the cell number change stood at 6.19%. Also, the AC50 under setting [1] was 6.51 µM [rising, single point].
`C=CCNC(=O)c1ccc(C)c(Br)c1`: the AC50 under setting [2] is 6.51 µM [rising, single point].
For the molecule `O=[N+]([O-])c1ccc(O)c(-c2nc(-c3ccccc3)c(-c3cccs3)[nH]2)c1`, the cell number change is -39.8%. Moreover, under setting [2], the AC50 was 20.6 µM [falling, single point].
For `CCOC(=O)N1CCN(C(=O)COC(=O)c2ccc([N+](=O)[O-])cc2Cl)CC1`, the cell number change is 35%. Further, under setting [2], the AC50 is 18.4 µM [rising, single point].
Consider `Cc1ccc(S(=O)(=O)N2CCN(C(=O)COC(=O)C3CC3C)CC2)c(C)c1` (centres undefined), for which the cell number change worked out at 1.17%. Further, the AC50 under setting [1] is 1.84 µM [rising, partial curve].
For `O=C(Nc1ccccc1C(=O)NC(Cc1c[nH]c2ccccc12)C(=O)O)c1ccco1` (centres undefined), the cell number change was 16.4%.
Turning to `COc1ccc(N2CCN(S(=O)(=O)c3c(C)noc3/C=C/N(C)C)CC2)cc1`, the cell number change is -9.25%. In addition, under setting [1], the concentration at half-maximal activity (AC50) is 29.1 µM [rising, single point].

By AC50 is commonly meant the midpoint of the concentration-response curve, whichever way the signal moves. Low readings indicate activity at low concentration, high ones activity only at high concentration.
